For some assays here: Weaker means in comparison with the reference protein, sequence or condition of that experiment. Tags and fusion partners may be left off the protein sequences shown. The exact form of at least one protein or probe is not confirmed. For some assays here: At least one verdict was read from the data and is not stated in words by the source.

Holding throughout (assay): EMSA
For series [1], the target named is T1, TraI helicase domain (TraI-H) (UniProt D9Z5Q2).
T1 sequence (looked up): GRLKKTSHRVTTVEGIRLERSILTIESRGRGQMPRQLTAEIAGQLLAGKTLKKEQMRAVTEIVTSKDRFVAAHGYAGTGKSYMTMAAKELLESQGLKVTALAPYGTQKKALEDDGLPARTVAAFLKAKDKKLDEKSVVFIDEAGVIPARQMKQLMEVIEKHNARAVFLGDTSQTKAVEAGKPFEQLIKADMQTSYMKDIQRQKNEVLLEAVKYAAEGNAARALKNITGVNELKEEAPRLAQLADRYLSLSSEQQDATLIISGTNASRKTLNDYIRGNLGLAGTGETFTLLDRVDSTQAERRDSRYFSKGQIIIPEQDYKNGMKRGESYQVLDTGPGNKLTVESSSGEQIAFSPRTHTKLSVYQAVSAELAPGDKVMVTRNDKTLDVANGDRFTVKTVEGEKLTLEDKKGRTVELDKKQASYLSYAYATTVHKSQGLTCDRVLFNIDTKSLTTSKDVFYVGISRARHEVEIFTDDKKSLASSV
The settings on record: low affinity, EMSA: 50 nM FITC-DNA, 0-1600 nM protein, 25 mM Hepes-NaOH pH 7.0, 300 mM NaCl, room temperature 15 min, 5% PAGE, 0.75x TBE, 4 C, recombinant protein, residues 429-910, protein details: 10xHis with 3C site, cleaved off. A general note: In EMSA bound probe runs differently from free probe, usually more slowly.

Series [2] has as its target T2, TraI trans-esterase domain (TraI-TE) (UniProt D9Z5Q2).
T2 sequence (looked up): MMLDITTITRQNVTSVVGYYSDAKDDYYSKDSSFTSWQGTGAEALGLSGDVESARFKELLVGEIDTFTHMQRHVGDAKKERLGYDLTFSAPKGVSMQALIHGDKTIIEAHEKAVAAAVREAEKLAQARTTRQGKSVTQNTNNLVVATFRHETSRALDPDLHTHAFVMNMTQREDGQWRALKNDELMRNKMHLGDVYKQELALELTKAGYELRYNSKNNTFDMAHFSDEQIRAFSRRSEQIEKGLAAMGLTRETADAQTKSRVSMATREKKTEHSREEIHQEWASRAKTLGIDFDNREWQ
The settings on record: interaction only above 800 or 1600 nM (which DNA not specified), EMSA: 50 nM FITC-DNA, 0-1600 nM protein, 25 mM Hepes-NaOH pH 7.0, 300 mM NaCl, room temperature 15 min, 5% PAGE, 0.75x TBE, 4 C, recombinant protein, residues 1-299, protein details: 10xHis with 3C site, cleaved off, single-stranded DNA.

Series [3] concerns the target T3, TraI full-length (UniProt D9Z5Q2).
T3 sequence (looked up, limits assumed): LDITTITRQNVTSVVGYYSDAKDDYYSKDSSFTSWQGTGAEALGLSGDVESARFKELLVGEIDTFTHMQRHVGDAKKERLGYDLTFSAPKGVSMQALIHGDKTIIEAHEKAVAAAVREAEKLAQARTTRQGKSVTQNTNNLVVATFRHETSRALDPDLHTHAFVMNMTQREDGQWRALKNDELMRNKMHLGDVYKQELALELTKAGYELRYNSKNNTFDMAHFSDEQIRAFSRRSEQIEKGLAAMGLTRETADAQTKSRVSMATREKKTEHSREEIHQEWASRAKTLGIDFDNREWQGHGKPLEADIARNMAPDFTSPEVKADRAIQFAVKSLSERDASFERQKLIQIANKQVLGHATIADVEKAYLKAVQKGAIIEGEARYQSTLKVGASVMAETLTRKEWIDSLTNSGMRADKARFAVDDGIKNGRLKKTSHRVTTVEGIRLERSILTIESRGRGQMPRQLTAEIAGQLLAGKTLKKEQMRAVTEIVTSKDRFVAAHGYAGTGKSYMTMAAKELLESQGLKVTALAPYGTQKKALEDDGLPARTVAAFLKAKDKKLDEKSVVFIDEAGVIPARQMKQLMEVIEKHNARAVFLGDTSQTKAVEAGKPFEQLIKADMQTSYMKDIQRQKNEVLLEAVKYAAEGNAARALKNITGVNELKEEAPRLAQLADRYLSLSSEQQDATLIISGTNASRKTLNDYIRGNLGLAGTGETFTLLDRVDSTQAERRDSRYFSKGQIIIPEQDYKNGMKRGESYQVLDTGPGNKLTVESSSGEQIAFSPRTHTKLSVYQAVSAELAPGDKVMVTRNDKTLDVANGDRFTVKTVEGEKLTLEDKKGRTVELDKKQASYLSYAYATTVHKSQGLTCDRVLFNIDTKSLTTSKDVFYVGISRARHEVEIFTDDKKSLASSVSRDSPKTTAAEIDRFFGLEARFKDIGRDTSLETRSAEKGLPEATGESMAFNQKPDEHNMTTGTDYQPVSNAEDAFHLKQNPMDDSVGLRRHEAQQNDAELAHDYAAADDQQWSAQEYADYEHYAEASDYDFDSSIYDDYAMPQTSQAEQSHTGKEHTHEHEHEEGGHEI
The settings on record: EMSA: 50 nM FITC-DNA, 0-1600 nM protein, 25 mM Hepes-NaOH pH 7.0, 300 mM NaCl, room temperature 15 min; 5% PAGE, 0.75x TBE, 4 C; recombinant protein; protein details: 10xHis with 3C site, cleaved off; label: 5' FITC; single-stranded DNA.

As for ATAGCAGGTTAAGGGATAAAAA [oriT22-F], in series [1] (weaker than with 57-mer, label: 3' FITC, single-stranded DNA), the binding result is given as “binds more weakly”. In series [2] (label: 3' FITC), the half-maximal binding was more than 800 nM.

“CACTAGTGAGCTACTGGAGCCGAGGGGTAACCACG [F-Random35]”: the binding result in series [1] (weaker than with 57-mer, label: 5' FITC, single-stranded DNA) is reported as “binds more weakly”; in series [3], “binds”. Moreover, the half-maximal binding in series [2] (label: 5' FITC) is more than 800 nM. In the case of “TCCGCCATGCAGACGAGACCAGTCGGAGATTACCGAGCATTCTATCAGGTCGGCGAC [F-Random57]”, the binding result in series [1] (400 nM needed for significant shift, label: 5' FITC, single-stranded DNA) is given as “binds more weakly”. For the sequence “TGTGATAGCGTGATTTATCGCGCTGCGTTAGGTGT [F-oriT35]”, the binding result in series [1] (weaker than with 57-mer, label: 5' FITC, folded or branched DNA) is “binds more weakly”.

As for “TGTGATAGCGTGATTTATCGCGCTGCGTTAGGTGTATAGCAGGTTAAGGGATAAAAA [F-oriT57]”, the binding result in series [1] (no sequence specificity, label: 5' FITC, folded or branched DNA) is on record as “binds more weakly”.

The values are drawn from publication PMC9868005, “Structural and functional characterization of TraI from pKM101 reveals basis for DNA processing”.
